Test results published in PMC3257419 (Journal of Medicinal Chemistry, 2011).

System: GABAA receptors
Settings: 1 μM cold GABA

For `NCCCC(=O)O` [GABA, γ-aminobutyric acid, reference compound], the “inhibition of radioligand binding to GABAA receptors” value was “inhibited radioligand binding as expected”.
